Data on 6 molecules can be found in PMC5778506.

The chains behind the UniProt entries cited, without tags or fusion partners.
UniProt P11940: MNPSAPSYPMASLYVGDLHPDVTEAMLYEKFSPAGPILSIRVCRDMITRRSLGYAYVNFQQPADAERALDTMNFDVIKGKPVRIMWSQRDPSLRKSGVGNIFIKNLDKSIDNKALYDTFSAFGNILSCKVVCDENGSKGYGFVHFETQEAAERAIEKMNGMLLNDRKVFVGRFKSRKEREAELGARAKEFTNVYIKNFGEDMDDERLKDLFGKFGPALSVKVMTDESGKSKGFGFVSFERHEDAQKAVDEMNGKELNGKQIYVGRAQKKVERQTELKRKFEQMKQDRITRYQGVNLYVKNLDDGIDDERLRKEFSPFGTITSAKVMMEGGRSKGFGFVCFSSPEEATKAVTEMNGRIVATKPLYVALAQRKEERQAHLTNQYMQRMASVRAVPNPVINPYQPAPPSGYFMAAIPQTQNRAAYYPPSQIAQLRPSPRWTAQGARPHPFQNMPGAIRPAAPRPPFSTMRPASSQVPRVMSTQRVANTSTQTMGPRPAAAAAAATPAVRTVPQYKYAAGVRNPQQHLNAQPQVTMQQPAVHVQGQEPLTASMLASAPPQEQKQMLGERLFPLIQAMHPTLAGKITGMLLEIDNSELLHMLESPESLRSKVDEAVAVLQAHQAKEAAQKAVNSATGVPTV
UniProt Q6NZY4: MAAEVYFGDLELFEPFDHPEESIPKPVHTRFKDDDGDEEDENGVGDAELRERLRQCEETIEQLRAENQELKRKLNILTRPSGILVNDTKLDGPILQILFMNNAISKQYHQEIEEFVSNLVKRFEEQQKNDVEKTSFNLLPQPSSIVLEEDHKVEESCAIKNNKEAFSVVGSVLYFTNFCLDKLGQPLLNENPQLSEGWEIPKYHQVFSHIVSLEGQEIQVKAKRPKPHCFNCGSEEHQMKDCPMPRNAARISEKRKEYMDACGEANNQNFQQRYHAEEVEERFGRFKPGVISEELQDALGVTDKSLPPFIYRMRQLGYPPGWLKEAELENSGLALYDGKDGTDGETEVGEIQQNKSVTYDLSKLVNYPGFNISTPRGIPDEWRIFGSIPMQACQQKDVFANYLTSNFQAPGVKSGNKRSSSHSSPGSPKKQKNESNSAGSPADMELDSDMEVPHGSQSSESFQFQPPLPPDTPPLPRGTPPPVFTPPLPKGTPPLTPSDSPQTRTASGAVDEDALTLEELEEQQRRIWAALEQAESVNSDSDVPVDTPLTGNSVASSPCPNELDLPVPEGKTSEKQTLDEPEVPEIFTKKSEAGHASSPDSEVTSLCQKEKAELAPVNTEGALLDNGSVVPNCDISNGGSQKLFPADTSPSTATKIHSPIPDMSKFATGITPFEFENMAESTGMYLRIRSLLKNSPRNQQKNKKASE
UniProt O75152: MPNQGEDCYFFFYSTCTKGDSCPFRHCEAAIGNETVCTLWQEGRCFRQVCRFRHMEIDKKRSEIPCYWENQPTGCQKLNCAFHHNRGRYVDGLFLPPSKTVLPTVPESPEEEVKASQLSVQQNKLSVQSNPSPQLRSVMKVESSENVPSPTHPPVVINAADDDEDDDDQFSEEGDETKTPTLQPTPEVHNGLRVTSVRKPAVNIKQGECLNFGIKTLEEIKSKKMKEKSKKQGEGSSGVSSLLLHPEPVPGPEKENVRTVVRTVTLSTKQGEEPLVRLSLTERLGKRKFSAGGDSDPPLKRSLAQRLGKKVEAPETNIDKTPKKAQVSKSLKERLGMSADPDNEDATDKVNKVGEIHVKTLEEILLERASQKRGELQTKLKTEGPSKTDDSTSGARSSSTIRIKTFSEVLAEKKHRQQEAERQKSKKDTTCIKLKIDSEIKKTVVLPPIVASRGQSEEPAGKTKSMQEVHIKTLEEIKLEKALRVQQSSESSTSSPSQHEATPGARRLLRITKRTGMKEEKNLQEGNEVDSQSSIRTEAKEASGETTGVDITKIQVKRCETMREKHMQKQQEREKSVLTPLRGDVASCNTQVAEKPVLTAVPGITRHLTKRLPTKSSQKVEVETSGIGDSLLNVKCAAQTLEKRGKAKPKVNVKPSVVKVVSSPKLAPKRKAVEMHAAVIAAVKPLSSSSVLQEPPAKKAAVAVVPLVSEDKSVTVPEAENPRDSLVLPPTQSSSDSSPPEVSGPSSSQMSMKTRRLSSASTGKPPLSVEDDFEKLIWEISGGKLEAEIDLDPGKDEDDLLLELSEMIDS

Results are given in words; binding and its absence hold for the method and conditions named. In cells and extracts the contact can be indirect. These calls come from enrichment with a bait or labelling near it, and not all partners need be listed.

Test in all cases: affinity purification with mass spectrometry; immunoprecipitation of endogenous pPABPN1 (anti-pS95 antibody) or total PABPN1 from U2-OS lysates (1% NP-40, 150 mM NaCl, 50 mM Tris-HCl pH 7.5, 1 mM MgCl2, 1% Benzonase), protein-A sepharose; cells treated with 50 ng/ml NCS for 30 min (total PABPN1: untreated cells too); siPABPN1 cells as control; hits >2-fold in at least two of three replicates

In assay [1] the target is T1, nuclear poly(A)-binding protein 1 (total PABPN1) (human (endogenous in U2-OS)) (UniProt Q86U42).
T1 sequence: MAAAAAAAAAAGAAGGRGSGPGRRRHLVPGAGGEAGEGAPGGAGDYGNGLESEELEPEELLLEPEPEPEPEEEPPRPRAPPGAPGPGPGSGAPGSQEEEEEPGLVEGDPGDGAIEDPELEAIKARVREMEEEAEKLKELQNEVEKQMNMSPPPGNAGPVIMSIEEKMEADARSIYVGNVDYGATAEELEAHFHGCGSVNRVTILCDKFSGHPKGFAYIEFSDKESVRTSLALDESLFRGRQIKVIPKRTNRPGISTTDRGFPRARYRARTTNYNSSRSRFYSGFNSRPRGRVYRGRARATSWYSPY

Assay [2] deals with T2, phospho-PABPN1 (nuclear poly(A)-binding protein 1 phosphorylated on Ser95) (human (endogenous in U2-OS)) (UniProt Q86U42).
T2 sequence (chain, phosphoserine at 95): T1 sequence

In assay [3] the target is T3, nuclear poly(A)-binding protein 1 (total PABPN1) (human (endogenous in U2-OS)), Q86U42.
T3 chain: T1 sequence
Particulars: remark: other sources report otherwise.

In assay [4] the target is T4, phospho-PABPN1 (nuclear poly(A)-binding protein 1 phosphorylated on Ser95) (human (endogenous in U2-OS)), Q86U42.
T4 chain: T1 sequence
Particulars: remark: other sources report otherwise.

Take “Poly(A) Binding Protein Cytoplasmic 1 (from UniProt P11940 1-636)”: the binding result in assay [1] and in assay [2] was “binds” each time.
On to “Zinc Finger CCHC-Type Containing 8 (from UniProt Q6NZY4 1-707)”, for which the binding result in assay [1] and in assay [2] was “binds” each time.
With “Zinc Finger CCCH-Type Containing 11A (from UniProt O75152 1-810)”, the binding entry in assay [1] and in assay [2] was “binds” in each case.

B1: Zinc Finger CCCH-Type Containing 14 (protein, UniProt Q6PJT7 1-736)
chain: MEIGTEISRKIRSAIKGKLQELGAYVDEELPDYIMVMVANKKSQDQMTEDLSLFLGNNTIRFTVWLHGVLDKLRSVTTEPSSLKSSDTNIFDSNVPSNKSNFSRGDERRHEAAVPPLAIPSARPEKRDSRVSTSSQESKTTNVRQTYDDGAATRLMSTVKPLREPAPSEDVIDIKPEPDDLIDEDLNFVQENPLSQKKPTVTLTYGSSRPSIEIYRPPASRNADSGVHLNRLQFQQQQNSIHAAKQLDMQSSWVYETGRLCEPEVLNSLEETYSPFFRNNSEKMSMEDENFRKRKLPVVSSVVKVKKFNHDGEEEEEDDDYGSRTGSISSSVSVPAKPERRPSLPPSKQANKNLILKAISEAQESVTKTTNYSTVPQKQTLPVAPRTRTSQEELLAEVVQGQSRTPRISPPIKEEETKGDSVEKNQGTQQRQLLSRLQIDPVMAETLQMSQDYYDMESMVHADTRSFILKKPKLSEEVVVAPNQESGMKTADSLRVLSGHLMQTRDLVQPDKPASPKFIVTLDGVPSPPGYMSDQEEDMCFEGMKPVNQTAASNKGLRGLLHPQQLHLLSRQLEDPNGSFSNAEMSELSVAQKPEKLLERCKYWPACKNGDECAYHHPISPCKAFPNCKFAEKCLFVHPNCKYDAKCTKPDCPFTHVSRRIPVLSPKPAVAPPAPPSSSQLCRYFPACKKMECPFYHPKHCRFNTQCTRPDCTFYHPTINVPPRHALKWIRPQTSE
On to B1, for which the binding entry in assay [1] and in assay [2] was “binds” in each case.

B2: Zinc Finger CCCH-Type Containing 3 (protein, UniProt Q8IXZ2 1-948)
chain: MEEKEILRRQIRLLQGLIDDYKTLHGNAPAPGTPAASGWQPPTYHSGRAFSARYPRPSRRGYSSHHGPSWRKKYSLVNRPPGPSDPPADHAVRPLHGARGGQPPVPQQHVLERQVQLSQGQNVVIKVKPPSKSGSASASGAQRGSLEEFEETPWSDQRPREGEGEPPRGQLQPSRPTRARGTCSVEDPLLVCQKEPGKPRMVKSVGSVGDSPREPRRTVSESVIAVKASFPSSALPPRTGVALGRKLGSHSVASCAPQLLGDRRVDAGHTDQPVPSGSVGGPARPASGPRQAREASLVVTCRTNKFRKNNYKWVAASSKSPRVARRALSPRVAAENVCKASAGMANKVEKPQLIADPEPKPRKPATSSKPGSAPSKYKWKASSPSASSSSSFRWQSEASSKDHASQLSPVLSRSPSGDRPAVGHSGLKPLSGETPLSAYKVKSRTKIIRRRSSTSLPGDKKSGTSPAATAKSHLSLRRRQALRGKSSPVLKKTPNKGLVQVTTHRLCRLPPSRAHLPTKEASSLHAVRTAPTSKVIKTRYRIVKKTPASPLSAPPFPLSLPSWRARRLSLSRSLVLNRLRPVASGGGKAQPGSPWWRSKGYRCIGGVLYKVSANKLSKTSGQPSDAGSRPLLRTGRLDPAGSCSRSLASRAVQRSLAIIRQARQRREKRKEYCMYYNRFGRCNRGERCPYIHDPEKVAVCTRFVRGTCKKTDGTCPFSHHVSKEKMPVCSYFLKGICSNSNCPYSHVYVSRKAEVCSDFLKGYCPLGAKCKKKHTLLCPDFARRGACPRGAQCQLLHRTQKRHSRRAATSPAPGPSDATARSRVSASHGPRKPSASQRPTRQTPSSAALTAAAVAAPPHCPGGSASPSSSKASSSSSSSSSPPASLDHEAPSLQEAALAAACSNRLCKLPSFISLQSSPSPGAQPRVRAPRAPLTKDSGKPLHIKPRL
In the case of B2, the binding result in assay [1] and in assay [2] was “binds” in each case.

B3: Ski2 Like RNA Helicase 2, P42285 1-1042 (protein)
chain: MADAFGDELFSVFEGDSTTAAGTKKDKEKDKGKWKGPPGSADKAGKRFDGKLQSESTNNGKNKRDVDFEGTDEPIFGKKPRIEESITEDLSLADLMPRVKVQSVETVEGCTHEVALPAEEDYLPLKPRVGKAAKEYPFILDAFQREAIQCVDNNQSVLVSAHTSAGKTVCAEYAIALALREKQRVIFTSPIKALSNQKYREMYEEFQDVGLMTGDVTINPTASCLVMTTEILRSMLYRGSEVMREVAWVIFDEIHYMRDSERGVVWEETIILLPDNVHYVFLSATIPNARQFAEWICHLHKQPCHVIYTDYRPTPLQHYIFPAGGDGLHLVVDENGDFREDNFNTAMQVLRDAGDLAKGDQKGRKGGTKGPSNVFKIVKMIMERNFQPVIIFSFSKKDCEAYALQMTKLDFNTDEEKKMVEEVFSNAIDCLSDEDKKLPQVEHVLPLLKRGIGIHHGGLLPILKETIEILFSEGLIKALFATETFAMGINMPARTVLFTNARKFDGKDFRWISSGEYIQMSGRAGRRGMDDRGIVILMVDEKMSPTIGKQLLKGSADPLNSAFHLTYNMVLNLLRVEEINPEYMLEKSFYQFQHYRAIPGVVEKVKNSEEQYNKIVIPNEESVVIYYKIRQQLAKLGKEIEEYIHKPKYCLPFLQPGRLVKVKNEGDDFGWGVVVNFSKKSNVKPNSGELDPLYVVEVLLRCSKESLKNSATEAAKPAKPDEKGEMQVVPVLVHLLSAISSVRLYIPKDLRPVDNRQSVLKSIQEVQKRFPDGIPLLDPIDDMGIQDQGLKKVIQKVEAFEHRMYSHPLHNDPNLETVYTLCEKKAQIAIDIKSAKRELKKARTVLQMDELKCRKRVLRRLGFATSSDVIEMKGRVACEISSADELLLTEMMFNGLFNDLSAEQATALLSCFVFQENSSEMPKLTEQLAGPLRQMQECAKRIAKVSAEAKLEIDEETYLSSFKPHLMDVVYTWATGATFAHICKMTDVFEGSIIRCMRRLEELLRQMCQAAKAIGNTELENKFAEGITKIKRDIVFAASLYL
Regarding B3, the binding entry in assay [3] and in assay [4] was “binds” throughout.
